Article doi:10.1101/2024.03.20.585857
Where two headings read alike, the source gives them in different places. Results are given in words; binding and its absence hold for the method and conditions named. Binding seen in cells or lysates may run through a third protein. These calls come from enrichment with a bait or labelling near it, and not all partners need be listed. A no says only that the protein was not detected with the bait.

Chains of the proteins cited; added tags and fusions are not shown.
UniProt Q8R3B7: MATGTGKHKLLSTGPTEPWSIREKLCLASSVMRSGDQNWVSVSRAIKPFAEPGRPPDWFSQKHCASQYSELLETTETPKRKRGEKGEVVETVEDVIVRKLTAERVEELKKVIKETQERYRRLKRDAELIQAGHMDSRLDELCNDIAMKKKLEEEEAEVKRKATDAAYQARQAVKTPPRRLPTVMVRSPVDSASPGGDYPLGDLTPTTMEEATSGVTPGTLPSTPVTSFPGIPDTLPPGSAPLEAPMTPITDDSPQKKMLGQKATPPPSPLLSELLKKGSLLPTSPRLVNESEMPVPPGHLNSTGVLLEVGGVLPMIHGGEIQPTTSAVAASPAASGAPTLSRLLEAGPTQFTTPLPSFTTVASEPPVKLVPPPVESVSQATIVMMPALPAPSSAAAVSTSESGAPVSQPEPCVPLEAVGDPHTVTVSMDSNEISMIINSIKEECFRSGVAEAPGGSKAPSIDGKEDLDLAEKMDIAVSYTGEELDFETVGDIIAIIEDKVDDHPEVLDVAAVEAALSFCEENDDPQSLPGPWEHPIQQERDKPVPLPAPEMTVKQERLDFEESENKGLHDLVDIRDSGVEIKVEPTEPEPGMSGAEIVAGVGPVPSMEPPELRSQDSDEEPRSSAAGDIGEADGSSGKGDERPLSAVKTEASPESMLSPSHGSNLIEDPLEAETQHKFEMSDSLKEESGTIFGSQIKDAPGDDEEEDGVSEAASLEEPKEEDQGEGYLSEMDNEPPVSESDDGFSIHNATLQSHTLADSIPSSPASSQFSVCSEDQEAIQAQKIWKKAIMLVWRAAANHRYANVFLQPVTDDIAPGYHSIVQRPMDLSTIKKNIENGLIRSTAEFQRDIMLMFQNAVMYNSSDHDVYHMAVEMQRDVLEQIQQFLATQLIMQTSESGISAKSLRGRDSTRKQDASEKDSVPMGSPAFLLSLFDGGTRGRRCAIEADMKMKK
UniProt P60762: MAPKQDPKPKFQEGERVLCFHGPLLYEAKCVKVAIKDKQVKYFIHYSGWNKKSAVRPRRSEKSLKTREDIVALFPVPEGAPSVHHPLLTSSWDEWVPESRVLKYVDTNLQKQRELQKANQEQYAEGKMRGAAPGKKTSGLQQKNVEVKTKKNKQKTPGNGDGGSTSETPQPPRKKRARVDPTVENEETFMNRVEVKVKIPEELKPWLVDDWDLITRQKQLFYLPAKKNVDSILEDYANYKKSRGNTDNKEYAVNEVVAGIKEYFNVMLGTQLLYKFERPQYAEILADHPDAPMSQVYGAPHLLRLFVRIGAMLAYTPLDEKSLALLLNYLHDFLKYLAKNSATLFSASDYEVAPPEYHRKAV
UniProt Q9R0Q4: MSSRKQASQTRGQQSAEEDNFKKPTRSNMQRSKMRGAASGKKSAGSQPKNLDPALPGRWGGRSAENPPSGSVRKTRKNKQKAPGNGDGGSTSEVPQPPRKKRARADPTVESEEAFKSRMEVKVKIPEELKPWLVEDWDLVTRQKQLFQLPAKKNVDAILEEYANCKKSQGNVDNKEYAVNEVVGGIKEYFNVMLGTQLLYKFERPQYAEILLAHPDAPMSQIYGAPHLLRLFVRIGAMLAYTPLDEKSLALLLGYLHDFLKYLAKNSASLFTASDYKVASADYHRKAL
UniProt Q62520: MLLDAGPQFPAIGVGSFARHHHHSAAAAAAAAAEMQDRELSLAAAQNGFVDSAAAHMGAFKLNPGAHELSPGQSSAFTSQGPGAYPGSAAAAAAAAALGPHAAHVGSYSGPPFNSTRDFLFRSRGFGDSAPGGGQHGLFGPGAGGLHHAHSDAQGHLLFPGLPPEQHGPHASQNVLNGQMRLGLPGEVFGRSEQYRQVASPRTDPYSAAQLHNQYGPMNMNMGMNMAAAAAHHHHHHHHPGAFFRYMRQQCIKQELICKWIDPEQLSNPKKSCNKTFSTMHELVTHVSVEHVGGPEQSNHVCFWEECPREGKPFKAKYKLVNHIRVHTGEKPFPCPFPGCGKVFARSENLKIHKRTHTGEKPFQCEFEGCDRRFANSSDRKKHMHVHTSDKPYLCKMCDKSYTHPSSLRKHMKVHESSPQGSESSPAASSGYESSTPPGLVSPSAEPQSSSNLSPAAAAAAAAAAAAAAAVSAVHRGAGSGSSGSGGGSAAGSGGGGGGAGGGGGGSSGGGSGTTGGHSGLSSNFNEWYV

How the values were obtained:
[1] = molecular target: BRD8 (mouse (in mouse ESCs and EpiSCs)) (UniProt Q8R3B7); test: affinity purification with mass spectrometry
[2] = molecular target: BRD8 (mouse (in mouse ESCs and EpiSCs)) (UniProt Q8R3B7); test: affinity purification with mass spectrometry; remark: listed apart in the source

Row | binding [1] | binding [2] | Substance
1 | binds | binds | MORF4L1 (from UniProt P60762 1-362)
2 | binds | binds | MORF4L2 (from UniProt Q9R0Q4 1-288)
3 | no binding | no binding | ZIC2 (from UniProt Q62520 1-530)
